# Measurements taken from patent publication US7799753B2, “Bisubstrate inhibitors of protein tyrosine kinases as therapeutic agents” (Board of Governers for Higher Education, priority 2004, dated 2010).
# By UniProt entry, the sequences of proteins in these tests, tags left out.
# UniProt P06239, whole entry, species assumed: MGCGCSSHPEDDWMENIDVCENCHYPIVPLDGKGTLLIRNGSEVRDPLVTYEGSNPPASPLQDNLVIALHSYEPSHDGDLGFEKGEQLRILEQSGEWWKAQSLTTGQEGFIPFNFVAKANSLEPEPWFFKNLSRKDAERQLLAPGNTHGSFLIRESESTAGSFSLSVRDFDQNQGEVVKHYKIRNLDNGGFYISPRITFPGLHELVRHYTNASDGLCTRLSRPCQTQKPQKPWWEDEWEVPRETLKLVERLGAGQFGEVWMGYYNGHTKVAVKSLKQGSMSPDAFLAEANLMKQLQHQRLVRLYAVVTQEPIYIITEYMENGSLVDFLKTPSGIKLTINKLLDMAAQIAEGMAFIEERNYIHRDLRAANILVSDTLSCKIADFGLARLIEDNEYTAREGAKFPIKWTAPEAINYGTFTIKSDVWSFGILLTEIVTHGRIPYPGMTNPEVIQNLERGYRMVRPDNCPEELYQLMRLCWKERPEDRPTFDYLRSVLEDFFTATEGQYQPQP
# Where “and” joins values, the source holds several entries; their conditions need not be identical. Equal values may be shown once. Entries after “also recorded” stand apart in the source; their conditions may differ. Read-outs that look alike come from different tables or passages of the source. Part of at least one peptide drawing is inferred or uncertain, most often the ends. Some entries share one result that the patent states for a list of compounds.
# Tests used:
# Src = Src (Homo sapiens, UniProt P12931); assay: Steady-state kinetic radioactive assay with Src (polyE4Y, [γ-32P]ATP), ATP-phosphopeptide conjugates; type: biochemical
# Experimental: Steady-State Kinetic Assays.
# Artificial substrate polyE4Y (average MW: 35 kD) was used for routine kinase activity. The kinase activity of PTKs was first determined using a standard radiometric PTK activity assay. This assay contains polyE4Y as the phosphate accepting substrate, [γ-^32P]-ATP, and MgCl2. After a reaction time of 30 min at 30° C., 35 μl of the reaction mixture was removed and spotted onto a filter paper and placed into warm 5% trichloroacetic acid (TCA). The TCA stops the kinase reaction, precipitates the proteins and polyE4Y onto the filter paper, and washes the un-reacted ATP and others away. After 3 TCA washes for 10 min each, the radioactivity remaining on the filter paper was determined by liquid scintillation counting. The assays were done in duplicates and repeated at least three times. Control reactions lacking polyE4Y were included for each enzyme concentration to correct for any non-polyE4Y specific phosphorylation. […] The inhibitory mechanism was determined based on the effect of the compound on the Km and Vm values Inhibitory constant (Ki) was determined by using Sigma Plot 8.0 Enzyme Kinetics Module.
# [1] = tested on: human embryonic kidney (HEK) 293 cells; assay: Cell proliferation assay in HEK 293 cells; type: cell-based; settings: HEK 293, 50 μM, compared to compounds without ATP moiety (12-17)
# Lck [2] = target: T1, Lck (Homo sapiens, UniProt P06239); assay: Steady-state kinetic radioactive assay with Lck (polyE4Y, [γ-32P]ATP); type: biochemical
# Src SH2 domain = Src SH2 domain (Homo sapiens, UniProt P12931); assay: Src SH2 domain fluorescence polarization binding assay; settings: competition vs. fluorescein-Gly-pTyr-Glu-Glu-Ile-NH2 probe; read-out: IC50, affinity to the Src SH2 domain
# Lck [3] = target: T1, Lck; assay: Cross-linking experiment with diazido conjugate and Lck (UV, SDS-PAGE); settings: incubated with whole Lck, UV irradiated
# [4] = read-out: Ki, ATP-binding site of Src, polyE4Y phosphorylation, versus ATP
# [5] = read-out: Ki, ATP-binding site of Lck
compound,measurement,setting,value
"CC[C@H](C)[C@H](NC(=O)[C@H](CCC(=O)O)NC(=O)[C@H](CCC(=O)O)NC(=O)[C@H](Cc1ccc(OP(=O)(O)O)cc1)NC(=O)CCNP(=O)(O)OP(=O)(O)OP(=O)(O)OC[C@H]1O[C@@H](n2cnc3c(N)ncnc32)[C@H](O)[C@@H]1O)C(=O)O [Compound 1, ATP-βAla-pTyr-Glu-Glu-Ile-OH]",Ki,Src; [4],1.7 µM
"CC[C@H](C)[C@H](NC(=O)[C@H](CCC(=O)O)NC(=O)[C@H](CCC(=O)O)NC(=O)[C@H](Cc1ccc(OP(=O)(O)O)cc1)NC(=O)CCCCCNP(=O)(O)OP(=O)(O)OP(=O)(O)OC[C@H]1O[C@@H](n2cnc3c(N)ncnc32)[C@H](O)[C@@H]1O)C(=O)O [Compound 2, ATP-6-Ahex-pTyr-Glu-Glu-Ile-OH]",inhibition of cell proliferation,[1],significantly inhibited the cell proliferation
"CC[C@H](C)[C@H](NC(=O)[C@H](CCC(=O)O)NC(=O)[C@H](CCC(=O)O)NC(=O)[C@H](Cc1ccc(OP(=O)(O)O)cc1)NC(=O)CCC(=O)NCCCOCCOCCOCCCNP(=O)(O)OP(=O)(O)OP(=O)(O)OC[C@H]1O[C@@H](n2cnc3c(N)ncnc32)[C@H](O)[C@@H]1O)C(=O)O [Compound 5, ATP-1,13-Trioxa-Suc-pTyr-Glu-Glu-Ile-OH]",fold more potent than ATP alone (Src),Src; Ki versus Km of ATP,approximately 44 fold
same,pattern of inhibition of Src versus ATP,Src; double reciprocal plot,linear competitive inhibition; also recorded: competitive inhibitor against ATP
same,Ki,Src; [4],1.7 to 2.6 µM and 1.7 µM
same,Ki,"Src; read-out: Ki, inhibition of Src (Lineweaver-Burk plot, FIG. 9), 1/V vs. 1/ATP with varying concentration of 5",1.7 µM
same,Vm,"Src; steady-state kinetics, Src",4.1 μmol/min/U
same,fold better binding affinity than ATP for ATP-binding site of Lck,Lck [2],about 3.9 fold
same,Ki,Lck [2]; [5],25.3 µM and 25.3 to 30 µM
"CC[C@H](C)[C@H](NC(=O)[C@H](CCC(=O)O)NC(=O)[C@H](CCC(=O)Nc1ccc(N=[N+]=[N-])cc1)NC(=O)[C@H](Cc1ccc(OP(=O)(O)O)cc1)NC(=O)CCC(=O)NCCCOCCOCCOCCCNP(=O)(O)OP(=O)(O)OP(=O)(O)OC[C@H]1O[C@@H](n2c(N=[N+]=[N-])nc3c(N)ncnc32)[C@H](O)[C@@H]1O)C(=O)O [Compound 7, ATP-1,13-Trioxa-SA-pTyr-γ-p-azidoGlu-Glu-Ile-OH]",Ki,Src; [4],1.7 to 2.6 µM and 2.7 µM
same,Ki,"Lck [2]; after UV exposure, read-out: Ki, ATP-binding site of Lck after UV exposure",29.8 µM
same,Ki,Lck [2]; [5],30 µM and 25.3 to 30 µM
same,IC50,Src SH2 domain,35.6 µM
same,dimer formation (cross-linking of Lck),Lck [3],absence of any dimerized product
